Data: patent US20070027184A1, “Multicyclic sulfonamide compounds as inhibitors of histone deacetylase for the treatment of disease” (KALYPSYS, INC., priority 2005, published 2007)
pIC50: −log10 of the molar value. At least one structure is not confirmed: it was looked up by name or label, or the drawing left a doubt.

System: HDAC
Experiment: In vitro HDAC-inhibition assay (Fluor de Lys)
Assay type: biochemical
Protocol: This assay measures a compound's ability to inhibit acetyl-lysine deacetylation in vitro and was used as both a primary screening method as well as for IC50 determinations of confirmed inhibitors. The assay is performed in vitro using an HDAC enzyme source (e.g. partially purified nuclear extract or immunopurified HDAC complexes) and a proprietary fluorescent substrate/developer system (HDAC Quantizyme Fluor de Lys Fluorescent Activity Assay, BIOMOL). The assay is run in 1,536-well Greiner white-bottom plates using the following volumes and order of addition:
Step 1: Enzyme (2.5 ul) source added to plate (from refrigerated container)
Step 2: Compounds (50 nl) added with pin transfer device
Step 3: Fluor de Lys (2.5 ul) substrate added, incubate at RT, 30 minutes
Step 4: Developer (5 ul) solution is added (containing TSA), to stop reaction
Step 5: Plate Reader—data collection
The deacetylated fluorophore is excited with 360 nm light and the emitted light (460 nm) is detected on an automated fluorometric plate reader (Aquest, Molecular Devices).

Row | SMILES | pIC50
1 | CC(=O)SCC(=O)c1ccc(NS(=O)(=O)c2ccc3c(c2)CCO3)nc1 [Example 4, Thioacetic acid S-{2-[6-(2,3-dihydro-benzofuran-5-sulfonylamino)-pyridin-3-yl]-2-oxo-ethyl}ester] | ≥ 6.00
2 | CC(=O)SCC(=O)c1ccc(NS(=O)(=O)c2ccc3c(c2)OCCN3C)nc1 [Example 14, Thioacetic acid S-{2-[6-(4-methyl-3,4-dihydro-2H-benzo[1,4]oxazine-7-sulfonylamino)-pyridin-3-yl]-2-oxo-ethyl}ester] | ≥ 6.00
